Measured values taken from ChEMBL document CHEMBL4316593 (Eur J Med Chem, 2019).
This continues a long series; more values of the same kind are listed elsewhere.

What was measured:
Type in all cases: cell-based
Details in all cases: U-87MG ATCC
[1] = Inhibition of RTK/PI3K/AKT/mTOR signaling in human U87 cells assessed as down regulation of HECTD2 gene expression at cytotoxic IC50 measured after 48 hrs relative to control
[2] = Inhibition of RTK/PI3K/AKT/mTOR signaling in human U87 cells assessed as up regulation of SMTNL2 gene expression at cytotoxic IC50 measured after 48 hrs relative to control
[3] = Inhibition of RTK/PI3K/AKT/mTOR signaling in human U87 cells assessed as up regulation of KCNG1 gene expression at cytotoxic IC50 measured after 48 hrs relative to control
[4] = Inhibition of RTK/PI3K/AKT/mTOR signaling in human U87 cells assessed as up regulation of glucosidase alpha, acid gene expression at cytotoxic IC50 measured after 48 hrs relative to control
[5] = Inhibition of RTK/PI3K/AKT/mTOR signaling in human U87 cells assessed as down regulation of TSHZ1 gene expression at cytotoxic IC50 measured after 48 hrs relative to control
[6] = Inhibition of RTK/PI3K/AKT/mTOR signaling in human U87 cells assessed as up regulation of unc-5 netrin receptor B gene expression at cytotoxic IC50 measured after 48 hrs relative to control
[7] = Inhibition of RTK/PI3K/AKT/mTOR signaling in human U87 cells assessed as up regulation of TNS4 gene expression at cytotoxic IC50 measured after 48 hrs relative to control
[8] = Inhibition of RTK/PI3K/AKT/mTOR signaling in human U87 cells assessed as down regulation of ENDOD1 gene expression at cytotoxic IC50 measured after 48 hrs relative to control
[9] = Inhibition of RTK/PI3K/AKT/mTOR signaling in human U87 cells assessed as up regulation of RBMX gene expression at cytotoxic IC50 measured after 48 hrs relative to control
[10] = Inhibition of RTK/PI3K/AKT/mTOR signaling in human U87 cells assessed as down regulation of C14orf2 gene expression at cytotoxic IC50 measured after 48 hrs relative to control
[11] = Inhibition of RTK/PI3K/AKT/mTOR signaling in human U87 cells assessed as up regulation of microtubule associated scaffold protein 1 gene expression at cytotoxic IC50 measured after 48 hrs relative to control
[12] = Inhibition of RTK/PI3K/AKT/mTOR signaling in human U87 cells assessed as up regulation of ABI2 gene expression at cytotoxic IC50 measured after 48 hrs relative to control
[13] = Inhibition of RTK/PI3K/AKT/mTOR signaling in human U87 cells assessed as down regulation of SNX1 gene expression at cytotoxic IC50 measured after 48 hrs relative to control
[14] = Inhibition of RTK/PI3K/AKT/mTOR signaling in human U87 cells assessed as up regulation of RSL1D1 gene expression at cytotoxic IC50 measured after 48 hrs relative to control
[15] = Inhibition of RTK/PI3K/AKT/mTOR signaling in human U87 cells assessed as up regulation of inositol 1,4,5-trisphosphate receptor interacting protein-like 1 gene expression at cytotoxic IC50 measured after 48 hrs relative to control
[16] = Inhibition of RTK/PI3K/AKT/mTOR signaling in human U87 cells assessed as up regulation of S100A4 gene expression at cytotoxic IC50 measured after 48 hrs relative to control
[17] = Inhibition of RTK/PI3K/AKT/mTOR signaling in human U87 cells assessed as down regulation of PSMD6 gene expression at cytotoxic IC50 measured after 48 hrs relative to control
[18] = Inhibition of RTK/PI3K/AKT/mTOR signaling in human U87 cells assessed as down regulation of LRRFIP2 gene expression at cytotoxic IC50 measured after 48 hrs relative to control
[19] = Inhibition of RTK/PI3K/AKT/mTOR signaling in human U87 cells assessed as up regulation of golgin A8 family member A gene expression at cytotoxic IC50 measured after 48 hrs relative to control
[20] = Inhibition of RTK/PI3K/AKT/mTOR signaling in human U87 cells assessed as up regulation of chromosome 11 open reading frame 54 gene expression at cytotoxic IC50 measured after 48 hrs relative to control
[21] = Inhibition of RTK/PI3K/AKT/mTOR signaling in human U87 cells assessed as down regulation of CTGF gene expression at cytotoxic IC50 measured after 48 hrs relative to control
[22] = Inhibition of RTK/PI3K/AKT/mTOR signaling in human U87 cells assessed as down regulation of CDK12 gene expression at cytotoxic IC50 measured after 48 hrs relative to control
[23] = Inhibition of RTK/PI3K/AKT/mTOR signaling in human U87 cells assessed as down regulation of SP6 gene expression at cytotoxic IC50 measured after 48 hrs relative to control
[24] = Inhibition of RTK/PI3K/AKT/mTOR signaling in human U87 cells assessed as down regulation of LEPR gene expression at cytotoxic IC50 measured after 48 hrs relative to control
[25] = Inhibition of RTK/PI3K/AKT/mTOR signaling in human U87 cells assessed as up regulation of centrosomal protein 250 gene expression at cytotoxic IC50 measured after 48 hrs relative to control
[26] = Inhibition of RTK/PI3K/AKT/mTOR signaling in human U87 cells assessed as up regulation of zinc finger protein 444 gene expression at cytotoxic IC50 measured after 48 hrs relative to control
[27] = Inhibition of RTK/PI3K/AKT/mTOR signaling in human U87 cells assessed as up regulation of DnaJ heat shock protein family (Hsp40) member C18 gene expression at cytotoxic IC50 measured after 48 hrs relative to control
[28] = Inhibition of RTK/PI3K/AKT/mTOR signaling in human U87 cells assessed as down regulation of GXYLT1 gene expression at cytotoxic IC50 measured after 48 hrs relative to control
[29] = Inhibition of RTK/PI3K/AKT/mTOR signaling in human U87 cells assessed as up regulation of LRRC75A-AS1 gene expression at cytotoxic IC50 measured after 48 hrs relative to control
[30] = Inhibition of RTK/PI3K/AKT/mTOR signaling in human U87 cells assessed as down regulation of PSMB6 gene expression at cytotoxic IC50 measured after 48 hrs relative to control
[31] = Inhibition of RTK/PI3K/AKT/mTOR signaling in human U87 cells assessed as down regulation of MARK3 gene expression at cytotoxic IC50 measured after 48 hrs relative to control
[32] = Inhibition of RTK/PI3K/AKT/mTOR signaling in human U87 cells assessed as up regulation of exosome component 5 gene expression at cytotoxic IC50 measured after 48 hrs relative to control

CC(=O)C(=NNc1ccccc1C#N)C(C)=O
log2FC [1]: -1.01
log2FC [2]: 2.19
log2FC [3]: 1.59
log2FC [4]: 0.742
log2FC [5]: -2.15
log2FC [6]: 1.38
log2FC [7]: 2.67
log2FC [8]: -0.809
log2FC [9]: 0.621
log2FC [10]: -0.513
log2FC [11]: 1.4
log2FC [12]: 0.552
log2FC [13]: -0.481
log2FC [14]: 0.4
log2FC [15]: 1.26
log2FC [16]: 2.36
log2FC [17]: -1.14
log2FC [18]: -0.871
log2FC [19]: 1.39
log2FC [20]: 0.898
log2FC [21]: -2.91
log2FC [22]: -1.09
log2FC [23]: -0.731
log2FC [24]: -1.07
log2FC [25]: 0.943
log2FC [26]: 1.29
log2FC [27]: 1.22
log2FC [28]: -1.02
log2FC [29]: 0.549
log2FC [30]: -0.998
log2FC [31]: -0.475
log2FC [32]: 1.45
